Data: the supplement of paper PMC10849652
The list shows a part of the results.

Chains of the proteins cited; added tags and fusions are not shown. Lines headed by an entry give the natural chain unless they say otherwise; changes in a name come on top.
UniProt P51665: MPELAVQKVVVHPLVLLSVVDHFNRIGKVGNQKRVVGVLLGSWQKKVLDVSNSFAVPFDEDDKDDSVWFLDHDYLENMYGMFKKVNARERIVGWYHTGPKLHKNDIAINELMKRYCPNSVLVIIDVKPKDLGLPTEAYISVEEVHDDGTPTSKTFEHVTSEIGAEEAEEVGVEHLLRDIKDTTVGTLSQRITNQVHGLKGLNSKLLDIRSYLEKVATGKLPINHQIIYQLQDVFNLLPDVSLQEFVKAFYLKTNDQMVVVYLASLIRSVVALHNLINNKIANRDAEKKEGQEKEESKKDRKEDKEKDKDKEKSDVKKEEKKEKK
UniProt Q9UI38: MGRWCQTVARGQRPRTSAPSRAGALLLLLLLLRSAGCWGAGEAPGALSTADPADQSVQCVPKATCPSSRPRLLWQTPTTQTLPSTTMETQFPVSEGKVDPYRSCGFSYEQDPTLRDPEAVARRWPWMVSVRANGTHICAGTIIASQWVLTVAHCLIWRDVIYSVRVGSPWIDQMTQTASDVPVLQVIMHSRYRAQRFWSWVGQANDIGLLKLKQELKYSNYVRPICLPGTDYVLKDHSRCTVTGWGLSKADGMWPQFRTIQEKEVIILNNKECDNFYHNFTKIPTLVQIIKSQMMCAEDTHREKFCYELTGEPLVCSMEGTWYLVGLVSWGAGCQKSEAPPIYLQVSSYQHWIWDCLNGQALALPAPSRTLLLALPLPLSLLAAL
UniProt Q99952: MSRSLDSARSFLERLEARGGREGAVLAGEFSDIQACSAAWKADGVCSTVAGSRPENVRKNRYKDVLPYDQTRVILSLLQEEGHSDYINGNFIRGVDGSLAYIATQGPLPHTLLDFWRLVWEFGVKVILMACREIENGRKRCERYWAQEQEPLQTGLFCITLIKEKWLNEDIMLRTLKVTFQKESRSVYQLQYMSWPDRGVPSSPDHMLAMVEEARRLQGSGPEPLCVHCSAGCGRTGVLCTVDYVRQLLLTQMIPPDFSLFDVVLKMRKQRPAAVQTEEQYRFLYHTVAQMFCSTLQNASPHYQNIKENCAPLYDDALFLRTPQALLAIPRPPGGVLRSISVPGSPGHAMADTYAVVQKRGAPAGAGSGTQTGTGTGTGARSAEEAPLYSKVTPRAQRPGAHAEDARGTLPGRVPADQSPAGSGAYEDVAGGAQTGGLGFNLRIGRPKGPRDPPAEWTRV
UniProt Q15185: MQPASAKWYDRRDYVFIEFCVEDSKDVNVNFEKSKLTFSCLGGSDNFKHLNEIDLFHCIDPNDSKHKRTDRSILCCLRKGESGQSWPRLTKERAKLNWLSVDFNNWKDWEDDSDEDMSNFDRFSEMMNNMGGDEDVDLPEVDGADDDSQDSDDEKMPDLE
UniProt Q14558: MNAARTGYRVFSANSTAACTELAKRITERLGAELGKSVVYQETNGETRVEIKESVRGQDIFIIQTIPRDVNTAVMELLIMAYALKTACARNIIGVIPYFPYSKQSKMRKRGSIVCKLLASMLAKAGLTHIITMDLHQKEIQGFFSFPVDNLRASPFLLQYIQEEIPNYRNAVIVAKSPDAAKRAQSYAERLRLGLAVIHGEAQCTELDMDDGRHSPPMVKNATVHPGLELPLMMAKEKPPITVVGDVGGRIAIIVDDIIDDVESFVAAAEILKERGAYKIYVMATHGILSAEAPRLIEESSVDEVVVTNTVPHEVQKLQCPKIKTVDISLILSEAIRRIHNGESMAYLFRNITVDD
UniProt Q9UKA9: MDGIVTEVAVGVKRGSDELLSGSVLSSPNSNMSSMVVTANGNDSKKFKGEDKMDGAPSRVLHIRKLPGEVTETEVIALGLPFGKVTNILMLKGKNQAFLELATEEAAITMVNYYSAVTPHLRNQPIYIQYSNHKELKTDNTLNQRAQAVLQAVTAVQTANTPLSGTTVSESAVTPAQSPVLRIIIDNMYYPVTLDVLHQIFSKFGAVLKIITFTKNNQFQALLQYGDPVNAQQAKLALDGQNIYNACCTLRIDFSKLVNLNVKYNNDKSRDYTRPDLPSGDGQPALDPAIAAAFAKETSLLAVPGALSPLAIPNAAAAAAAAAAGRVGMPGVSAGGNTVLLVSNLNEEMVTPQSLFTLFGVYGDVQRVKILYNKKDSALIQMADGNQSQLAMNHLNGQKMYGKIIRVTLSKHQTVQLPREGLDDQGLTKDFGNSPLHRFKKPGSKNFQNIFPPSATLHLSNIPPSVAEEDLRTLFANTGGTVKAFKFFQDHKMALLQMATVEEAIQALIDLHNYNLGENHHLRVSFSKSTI
UniProt Q13200: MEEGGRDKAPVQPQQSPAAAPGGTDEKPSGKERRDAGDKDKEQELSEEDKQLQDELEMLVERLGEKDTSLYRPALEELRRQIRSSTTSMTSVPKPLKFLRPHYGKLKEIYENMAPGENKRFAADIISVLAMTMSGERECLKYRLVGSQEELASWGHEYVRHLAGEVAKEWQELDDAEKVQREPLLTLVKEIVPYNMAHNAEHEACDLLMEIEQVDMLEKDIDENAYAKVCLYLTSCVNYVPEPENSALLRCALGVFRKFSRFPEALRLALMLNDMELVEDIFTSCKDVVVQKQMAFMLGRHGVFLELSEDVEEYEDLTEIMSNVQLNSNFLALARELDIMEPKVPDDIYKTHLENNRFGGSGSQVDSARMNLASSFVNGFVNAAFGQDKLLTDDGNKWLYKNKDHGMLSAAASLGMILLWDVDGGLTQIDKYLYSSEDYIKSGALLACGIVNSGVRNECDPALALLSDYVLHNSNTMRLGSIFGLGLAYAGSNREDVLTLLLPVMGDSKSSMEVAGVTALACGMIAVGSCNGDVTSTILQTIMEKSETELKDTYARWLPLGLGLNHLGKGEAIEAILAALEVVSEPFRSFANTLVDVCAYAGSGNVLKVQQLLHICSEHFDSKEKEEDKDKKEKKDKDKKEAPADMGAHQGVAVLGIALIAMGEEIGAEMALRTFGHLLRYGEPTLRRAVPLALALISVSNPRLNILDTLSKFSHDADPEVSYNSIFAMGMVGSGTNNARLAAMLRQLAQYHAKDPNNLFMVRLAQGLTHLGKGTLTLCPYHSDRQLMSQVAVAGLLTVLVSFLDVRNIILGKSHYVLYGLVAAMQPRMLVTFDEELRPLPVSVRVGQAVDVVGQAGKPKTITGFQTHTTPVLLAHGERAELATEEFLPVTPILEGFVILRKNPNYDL
UniProt Q8N0Z8: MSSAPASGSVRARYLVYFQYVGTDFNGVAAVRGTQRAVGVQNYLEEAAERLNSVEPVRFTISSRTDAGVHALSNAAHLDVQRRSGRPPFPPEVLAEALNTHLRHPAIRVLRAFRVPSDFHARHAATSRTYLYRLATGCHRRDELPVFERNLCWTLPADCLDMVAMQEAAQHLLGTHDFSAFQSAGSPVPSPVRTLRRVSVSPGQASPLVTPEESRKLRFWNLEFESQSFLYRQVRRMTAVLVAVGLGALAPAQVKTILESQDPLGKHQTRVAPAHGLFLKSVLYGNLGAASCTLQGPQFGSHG
UniProt Q8NDX1: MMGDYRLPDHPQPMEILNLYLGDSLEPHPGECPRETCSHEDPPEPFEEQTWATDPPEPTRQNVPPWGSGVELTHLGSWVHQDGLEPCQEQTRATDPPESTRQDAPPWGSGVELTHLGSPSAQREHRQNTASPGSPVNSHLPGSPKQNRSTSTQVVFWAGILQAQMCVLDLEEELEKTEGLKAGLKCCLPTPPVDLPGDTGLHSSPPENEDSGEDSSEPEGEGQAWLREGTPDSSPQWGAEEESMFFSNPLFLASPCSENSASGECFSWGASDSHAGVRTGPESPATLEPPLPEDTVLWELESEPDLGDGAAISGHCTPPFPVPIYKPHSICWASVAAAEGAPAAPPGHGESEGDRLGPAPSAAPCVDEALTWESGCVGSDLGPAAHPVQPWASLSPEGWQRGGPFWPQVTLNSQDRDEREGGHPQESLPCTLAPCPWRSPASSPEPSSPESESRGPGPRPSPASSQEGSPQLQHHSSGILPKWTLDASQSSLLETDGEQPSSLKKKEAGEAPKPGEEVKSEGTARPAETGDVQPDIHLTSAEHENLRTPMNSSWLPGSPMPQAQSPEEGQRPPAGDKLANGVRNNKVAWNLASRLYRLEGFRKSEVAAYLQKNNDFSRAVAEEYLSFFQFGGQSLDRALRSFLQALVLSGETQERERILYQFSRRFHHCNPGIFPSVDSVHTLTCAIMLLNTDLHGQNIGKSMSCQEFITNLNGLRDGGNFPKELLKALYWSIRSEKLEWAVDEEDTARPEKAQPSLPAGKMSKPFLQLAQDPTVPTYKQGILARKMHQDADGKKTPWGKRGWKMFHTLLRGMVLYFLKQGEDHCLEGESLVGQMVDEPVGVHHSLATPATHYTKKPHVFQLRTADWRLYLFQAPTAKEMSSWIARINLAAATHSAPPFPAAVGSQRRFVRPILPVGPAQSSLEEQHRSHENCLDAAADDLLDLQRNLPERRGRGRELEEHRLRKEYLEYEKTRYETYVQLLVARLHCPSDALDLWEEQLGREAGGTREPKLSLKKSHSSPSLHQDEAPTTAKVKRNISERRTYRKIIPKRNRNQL
UniProt Q9Y617: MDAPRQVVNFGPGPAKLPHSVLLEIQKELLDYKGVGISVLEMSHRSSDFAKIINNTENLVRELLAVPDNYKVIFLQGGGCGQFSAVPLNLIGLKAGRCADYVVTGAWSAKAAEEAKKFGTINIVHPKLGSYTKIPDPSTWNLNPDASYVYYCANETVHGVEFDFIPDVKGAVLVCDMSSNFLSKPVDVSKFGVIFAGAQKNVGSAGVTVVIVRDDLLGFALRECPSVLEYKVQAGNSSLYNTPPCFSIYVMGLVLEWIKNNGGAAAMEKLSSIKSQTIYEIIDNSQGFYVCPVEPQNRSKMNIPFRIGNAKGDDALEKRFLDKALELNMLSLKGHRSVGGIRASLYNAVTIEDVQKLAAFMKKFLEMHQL
UniProt Q9UHX1: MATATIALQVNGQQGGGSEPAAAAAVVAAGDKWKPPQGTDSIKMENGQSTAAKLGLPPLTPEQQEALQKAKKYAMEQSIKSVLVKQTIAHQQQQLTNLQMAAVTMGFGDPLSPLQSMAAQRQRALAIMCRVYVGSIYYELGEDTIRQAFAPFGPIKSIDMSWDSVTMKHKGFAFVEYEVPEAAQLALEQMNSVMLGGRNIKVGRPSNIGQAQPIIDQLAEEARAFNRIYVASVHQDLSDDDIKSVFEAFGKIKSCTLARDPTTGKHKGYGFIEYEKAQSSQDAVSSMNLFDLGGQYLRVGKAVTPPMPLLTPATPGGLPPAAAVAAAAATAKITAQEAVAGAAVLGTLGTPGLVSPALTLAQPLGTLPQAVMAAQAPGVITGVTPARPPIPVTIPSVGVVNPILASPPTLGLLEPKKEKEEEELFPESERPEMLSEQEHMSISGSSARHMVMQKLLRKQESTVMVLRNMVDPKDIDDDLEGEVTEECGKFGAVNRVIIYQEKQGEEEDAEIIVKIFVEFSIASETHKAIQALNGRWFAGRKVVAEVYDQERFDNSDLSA
UniProt P28062: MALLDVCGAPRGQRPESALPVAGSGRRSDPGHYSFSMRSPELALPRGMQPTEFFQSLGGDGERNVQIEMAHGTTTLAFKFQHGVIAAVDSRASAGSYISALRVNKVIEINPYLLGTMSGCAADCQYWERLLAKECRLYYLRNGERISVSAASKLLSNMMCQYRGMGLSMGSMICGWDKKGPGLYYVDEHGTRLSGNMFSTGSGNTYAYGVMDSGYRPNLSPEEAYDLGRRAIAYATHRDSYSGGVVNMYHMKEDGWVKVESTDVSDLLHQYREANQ
UniProt Q08623: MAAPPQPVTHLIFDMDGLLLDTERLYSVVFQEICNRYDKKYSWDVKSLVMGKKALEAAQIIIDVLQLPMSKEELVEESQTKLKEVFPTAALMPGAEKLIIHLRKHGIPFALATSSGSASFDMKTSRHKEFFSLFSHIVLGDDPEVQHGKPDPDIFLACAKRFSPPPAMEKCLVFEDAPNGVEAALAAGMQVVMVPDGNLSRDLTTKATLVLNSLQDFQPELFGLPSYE
UniProt P29350: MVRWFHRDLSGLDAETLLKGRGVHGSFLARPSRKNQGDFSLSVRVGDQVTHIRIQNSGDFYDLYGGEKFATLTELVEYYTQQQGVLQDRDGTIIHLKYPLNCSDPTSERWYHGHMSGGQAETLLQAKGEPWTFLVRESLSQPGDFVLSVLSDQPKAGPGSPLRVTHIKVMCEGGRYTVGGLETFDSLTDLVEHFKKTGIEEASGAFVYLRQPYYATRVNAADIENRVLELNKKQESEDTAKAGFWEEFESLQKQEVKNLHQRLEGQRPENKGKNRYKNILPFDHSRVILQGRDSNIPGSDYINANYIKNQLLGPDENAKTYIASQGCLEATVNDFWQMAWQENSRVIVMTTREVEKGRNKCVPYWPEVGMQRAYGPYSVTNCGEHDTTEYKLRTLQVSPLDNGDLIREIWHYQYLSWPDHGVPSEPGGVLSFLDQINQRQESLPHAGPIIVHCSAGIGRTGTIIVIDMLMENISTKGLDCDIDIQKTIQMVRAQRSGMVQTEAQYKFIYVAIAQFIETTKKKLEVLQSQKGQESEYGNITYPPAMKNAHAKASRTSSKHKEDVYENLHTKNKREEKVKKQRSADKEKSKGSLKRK

How the values were obtained:
Assay in all cases: log2 fold change, soluble protein after heating vs DMSO (PISA); higher = thermal stabilisation; K562 lysate, 10 uM; active = over 0.2 and 3.5 SD of the protein, either way, in both replicates (recomputed)
ibrutinib = compound: C=CC(=O)N1CCC[C@@H](n2nc(-c3ccc(Oc4ccccc4)cc3)c3c(N)ncnc32)C1 [ibrutinib]
Summary of the method: (§1)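 Pellets of K562 cells were dounce-homogenised in PBS pH 7.4 with 1 mM MgCl2, and the crude extract was held at 1 mg/mL protein for a 30 min treatment with 10 μM compound. Aliquots were heated for 3 min over 48°C-58°C and pooled before NP-40 was added to 0.5% at 4°C. The supernatant from 21,000xg for 90 min was quantified by TMTpro 16plex LC-MS/MS with channel sums equalised. Values are reported from duplicates as log-two fold change in thermal stability relative to solvent controls.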

[1] = compound: CC(=O)c1cnc2ccc(-c3cc(Cl)c(O)c(Cl)c3)nc2c1N[C@H]1CC[C@H](CN(C)C)CC1
Summary of the method: as §1

ralimetinib = compound: CC(C)(C)Cn1c(N)nc2ccc(-c3[nH]c(C(C)(C)C)nc3-c3ccc(F)cc3)nc21 [ralimetinib]
Summary of the method: as §1

[2] = compound: CC(C)(O)CC(=O)NCCn1ccc2ncnc(Nc3ccc(Oc4cccc(C(F)(F)F)c4)c(Cl)c3)c21
Summary of the method: as §1

[3] = compound: CC(C)C1=C2N=C(C=C(N2N=C1)NCC3=CC=CC=C3)NCCCCCCN
Summary of the method: as §1

[4] = compound: CC1=C(C(CC(=O)N1)C2=CC=C(C=C2)C(F)(F)F)C(=O)NC3=C(C=C4C(=C3)C=NN4)F
Summary of the method: as §1

[5] = compound: CC1=C(C2=C(C=C1)C(=O)C3=CC=CC=C3N2CCCN)C
Summary of the method: as §1

[6] = compound: CC1=C(C=C(C=C1)NC(=O)C2=CC(=CC=C2)C(C)(C)C#N)NC3=CC4=C(C=C3)N=CN(C4=O)C
Summary of the method: as §1

[7] = compound: CC1=C(C=C(C=C1)NC(=O)C2=CC(=CC=C2)N(C)C)NC(=O)C3=CC=C(C=C3)O
Summary of the method: as §1

[8] = compound: CC1=CC=C(C=C1)SC2=C3C=C(SC3=CN=C2)C(=O)N
Summary of the method: as §1

Measured: log2 fold change

PSEN1 (UniProt P49768)
inactive: ibrutinib 0.051 | [1] 0.036 | ralimetinib -0.011 | [2] 0.107 | [3] 0.038 | [4] -0.123 | [5] -0.067 | [6] 0.019 | [7] -0.016 | [8] -0.027

PSMD7 (UniProt P51665)
inactive: ibrutinib -0.023 | [1] -0.01 | ralimetinib 0.003 | [2] -0.044 | [3] -0.011 | [4] 0.011 | [5] 0.003 | [6] -0.001 | [7] 0 | [8] 0.019

PRSS50 (UniProt Q9UI38)
inactive: ibrutinib 0.03 | [1] 0 | [5] -0.036 | [8] -0.053

PTPN18 (UniProt Q99952)
inactive: ibrutinib 0.107 | [1] -0.092 | ralimetinib 0.028 | [2] 0.029 | [3] 0.066 | [4] -0.024 | [5] -0.065 | [6] 0.049 | [7] 0.071 | [8] -0.056

PTGES3 (UniProt Q15185)
inactive: ibrutinib 0.013 | [1] -0.001 | ralimetinib 0.004 | [2] 0.007 | [3] 0.002 | [4] -0.026 | [5] 0.008 | [6] 0.021 | [7] -0.004 | [8] 0.007

PRPSAP1 isoform 2 (UniProt Q14558)
inactive: ibrutinib -0.019 | [1] 0.009 | ralimetinib -0.007 | [2] -0.066 | [3] 0.007 | [4] -0.011 | [5] 0 | [6] -0.017 | [7] 0.018 | [8] 0

PTBP2 isoform 2 (UniProt Q9UKA9)
inactive: ibrutinib 0.056 | [1] -0.092 | ralimetinib 0.012 | [2] 0.011 | [3] 0.018 | [4] -0.025 | [5] -0.1 | [6] 0.037 | [7] 0.032 | [8] 0.019

PSMD2 (UniProt Q13200)
inactive: ibrutinib -0.019 | [1] -0.001 | ralimetinib 0.004 | [2] -0.011 | [3] -0.004 | [4] -0.002 | [5] -0.009 | [6] 0.006 | [7] 0.005 | [8] 0.008

PUSL1 (UniProt Q8N0Z8)
inactive: ibrutinib -0.053 | [1] -0.039 | ralimetinib 0.002 | [2] -0.03 | [3] -0.031 | [4] -0.064 | [5] 0.146 | [6] -0.019 | [7] -0.075 | [8] 0.078

PSD4 (UniProt Q8NDX1)
inactive: ibrutinib -0.014 | [1] 0.017 | ralimetinib 0.055 | [2] -0.012 | [3] 0.006 | [4] 0.015 | [5] 0.01 | [6] 0.024 | [7] 0.042 | [8] 0.036

2 entries drawn at random from those above, as already listed:
PRPSAP1 isoform 2 (UniProt Q14558)
inactive: ibrutinib -0.019 | [1] 0.009 | ralimetinib -0.007 | [2] -0.066 | [3] 0.007 | [4] -0.011 | [5] 0 | [6] -0.017 | [7] 0.018 | [8] 0

PUSL1 (UniProt Q8N0Z8)
inactive: ibrutinib -0.053 | [1] -0.039 | ralimetinib 0.002 | [2] -0.03 | [3] -0.031 | [4] -0.064 | [5] 0.146 | [6] -0.019 | [7] -0.075 | [8] 0.078

(continued)

PSMD1, A0A087WW66
inactive: ibrutinib 0.2 | [1] 0.062 | [8] -0.025

PSAT1 (UniProt Q9Y617)
inactive: ibrutinib -0.048 | [1] -0.054 | ralimetinib -0.004 | [2] 0.025 | [3] 0.005 | [4] -0.028 | [5] 0.006 | [6] -0.011 | [7] -0.026 | [8] -0.018

PUF60 isoform 2 (UniProt Q9UHX1)
inactive: ibrutinib 0.153 | [1] -0.049 | ralimetinib 0.045 | [2] 0.004 | [3] -0.174 | [4] -0.021 | [6] 0.032 | [7] -0.036 | [8] 0.013

PSMB8 (UniProt P28062)
inactive: ibrutinib -0.028 | [1] -0.068 | ralimetinib -0.043 | [2] -0.015 | [3] 0.11 | [5] -0.001 | [6] 0.191 | [7] 0.053 | [8] -0.004

PUDP isoform 4 (UniProt Q08623)
inactive: ibrutinib 0.053 | [1] 0.003 | ralimetinib -0.007 | [2] 0.012 | [3] -0.001 | [4] -0.044 | [5] -0.031 | [6] 0.042 | [7] 0.01 | [8] 0.005

PTPN6 isoform 4 (UniProt P29350)
inactive: ibrutinib 0.051 | [1] -0.077 | ralimetinib 0.045 | [2] -0.026 | [3] 0.019 | [4] 0 | [5] -0.081 | [6] -0.031 | [7] 0.011 | [8] 0.054
